Reference: paper PMC12548438
Where two headings read alike, the source gives them in different places. These are yes or no findings as the source states them, for the method shown. Binding seen in cells or lysates may run through a third protein. Some results given as binding are weak or reduced against the parent protein; the word gives no strength. For part of these data: Where a sequence is shown, tags or fusion partners need not be part of it.

The chains behind the UniProt entries cited, without tags or fusion partners. Where a name states a change or a piece, a line headed by the entry shows the natural chain unless it says otherwise.
UniProt Q06732, whole entry: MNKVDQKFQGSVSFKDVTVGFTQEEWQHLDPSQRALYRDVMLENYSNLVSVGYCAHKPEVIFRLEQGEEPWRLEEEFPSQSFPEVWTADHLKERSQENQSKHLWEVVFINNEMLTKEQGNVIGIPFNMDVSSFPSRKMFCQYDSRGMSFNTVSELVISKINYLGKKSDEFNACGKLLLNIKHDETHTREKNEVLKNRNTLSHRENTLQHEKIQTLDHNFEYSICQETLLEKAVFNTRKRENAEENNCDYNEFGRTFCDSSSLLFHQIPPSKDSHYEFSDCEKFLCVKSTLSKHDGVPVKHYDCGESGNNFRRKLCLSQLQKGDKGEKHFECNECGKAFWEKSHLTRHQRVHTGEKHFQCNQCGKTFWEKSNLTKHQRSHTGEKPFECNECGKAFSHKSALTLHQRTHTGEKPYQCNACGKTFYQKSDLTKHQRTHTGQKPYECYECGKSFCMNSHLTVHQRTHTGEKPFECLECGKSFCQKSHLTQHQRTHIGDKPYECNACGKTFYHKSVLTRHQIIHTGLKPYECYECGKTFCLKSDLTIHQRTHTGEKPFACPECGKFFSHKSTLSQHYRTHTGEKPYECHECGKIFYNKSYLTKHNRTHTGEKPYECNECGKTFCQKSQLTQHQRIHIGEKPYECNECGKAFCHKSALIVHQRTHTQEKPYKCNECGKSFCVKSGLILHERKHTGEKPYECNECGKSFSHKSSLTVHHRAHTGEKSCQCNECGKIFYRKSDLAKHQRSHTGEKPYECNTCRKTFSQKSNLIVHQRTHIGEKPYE
UniProt P29590, whole entry: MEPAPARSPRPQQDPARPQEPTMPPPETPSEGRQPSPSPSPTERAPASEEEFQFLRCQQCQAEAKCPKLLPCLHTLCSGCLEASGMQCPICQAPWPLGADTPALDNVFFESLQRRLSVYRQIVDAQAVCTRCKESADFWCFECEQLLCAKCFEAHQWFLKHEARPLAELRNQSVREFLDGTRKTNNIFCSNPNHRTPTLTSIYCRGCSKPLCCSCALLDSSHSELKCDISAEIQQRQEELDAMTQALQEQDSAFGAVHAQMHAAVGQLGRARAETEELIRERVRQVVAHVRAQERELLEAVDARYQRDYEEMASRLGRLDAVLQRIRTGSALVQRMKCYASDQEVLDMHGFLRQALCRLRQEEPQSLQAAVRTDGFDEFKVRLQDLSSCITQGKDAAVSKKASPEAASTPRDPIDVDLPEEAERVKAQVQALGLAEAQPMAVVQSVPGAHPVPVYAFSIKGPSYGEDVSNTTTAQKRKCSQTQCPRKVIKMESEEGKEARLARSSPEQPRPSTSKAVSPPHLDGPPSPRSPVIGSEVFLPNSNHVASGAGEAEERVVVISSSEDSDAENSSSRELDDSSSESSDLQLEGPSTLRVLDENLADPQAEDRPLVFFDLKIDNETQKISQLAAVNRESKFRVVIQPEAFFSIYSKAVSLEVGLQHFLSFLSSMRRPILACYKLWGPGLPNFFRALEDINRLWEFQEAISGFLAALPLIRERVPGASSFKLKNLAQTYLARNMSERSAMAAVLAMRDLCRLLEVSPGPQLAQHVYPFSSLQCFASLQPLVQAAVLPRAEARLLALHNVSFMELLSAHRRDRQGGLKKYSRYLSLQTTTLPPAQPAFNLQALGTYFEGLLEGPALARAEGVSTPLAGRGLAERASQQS
UniProt P04792, whole entry: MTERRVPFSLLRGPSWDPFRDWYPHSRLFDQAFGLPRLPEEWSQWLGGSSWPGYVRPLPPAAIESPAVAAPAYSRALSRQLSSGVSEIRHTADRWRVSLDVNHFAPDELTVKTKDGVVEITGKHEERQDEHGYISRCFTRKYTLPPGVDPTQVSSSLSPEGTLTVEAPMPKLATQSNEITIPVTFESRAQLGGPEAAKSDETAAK

B1: HSPB8-HA (heat shock protein beta-8, HA-tagged) (protein, UniProt Q9UJY1 1-196)
chain: MADGQMPFSCHYPSRLRRDPFRDSPLSSRLLDDGFGMDPFPDDLTASWPDWALPRLSSAWPGTLRSGMVPRGPTATARFGVPAEGRTPPPFPGEPWKVCVNVHSFKPEELMVKTKDGYVEVSGKHEEKQQEGGIVSKNFTKKIQLPAEVDPVTVFASLSPEGLLIIEAPQVPPYSTFGESSFNNELPQDSQEVTCT

How the values were obtained:
[1] = biological target: ZNF33B-HA (zinc finger protein 33B, HA-tagged) (UniProt Q06732); assay: co-IP
[2] = biological target: JEV NS5-FLAG (nonstructural protein 5, FLAG-tagged) (Japanese encephalitis virus, strain RP9) (UniProt P27395); assay: co-IP
[3] = biological target: PML-HA (promyelocytic leukemia protein, HA-tagged) (UniProt P29590); assay: co-IP; ZNF33B with PML (Fig. S8A) and with UBC9 (Fig. S8C); legend not shown, constructs and antibody of the precipitation not told
[4] = biological target: JEV NS5-FLAG (nonstructural protein 5, FLAG-tagged) (Japanese encephalitis virus, strain RP9) (UniProt P27395); assay: co-IP; remark: listed apart in the source

Molecule	binding [2]	also measured
JEV NS5-FLAG (nonstructural protein 5, FLAG-tagged) (from UniProt P27395)		binding [1]: binds
ZNF33B-HA (zinc finger protein 33B, HA-tagged) (from UniProt Q06732 1-778)	binds	
HSPB1-HA (Heat Shock Protein Beta-1, HA-tagged) (from UniProt P04792 1-205)	binds	
ZNF33B (construct of the supplementary co-IPs, Fig. S3 and Fig. S8; tag not shown) (from UniProt Q06732 1-778)		binding [3]: binds
ZNF33B-MYC (zinc finger protein 33B, MYC-tagged) (from UniProt Q06732 1-778)	binds	
B1		binding [4]: binds
